{
  "sequences": {"note": "Protein sequences, listed by entry. Tags and fused reporters are not part of them. Lines headed by an entry give the natural chain unless they say otherwise; changes in a name come on top.", "UniProt Q9Y2R4": "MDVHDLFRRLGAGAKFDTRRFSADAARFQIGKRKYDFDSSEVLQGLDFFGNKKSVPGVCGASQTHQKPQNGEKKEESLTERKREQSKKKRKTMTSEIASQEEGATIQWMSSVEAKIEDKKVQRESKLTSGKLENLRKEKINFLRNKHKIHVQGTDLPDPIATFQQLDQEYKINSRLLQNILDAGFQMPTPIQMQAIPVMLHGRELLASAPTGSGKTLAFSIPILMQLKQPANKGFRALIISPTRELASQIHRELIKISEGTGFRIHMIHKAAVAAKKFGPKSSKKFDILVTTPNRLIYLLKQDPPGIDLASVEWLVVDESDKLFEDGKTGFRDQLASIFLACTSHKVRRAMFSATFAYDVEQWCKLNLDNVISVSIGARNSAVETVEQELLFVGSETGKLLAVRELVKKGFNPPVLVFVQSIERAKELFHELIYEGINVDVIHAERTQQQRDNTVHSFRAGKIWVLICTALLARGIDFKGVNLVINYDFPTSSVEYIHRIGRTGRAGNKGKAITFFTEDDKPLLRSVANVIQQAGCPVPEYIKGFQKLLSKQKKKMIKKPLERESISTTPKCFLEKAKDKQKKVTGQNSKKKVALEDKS", "UniProt Q9Y283": "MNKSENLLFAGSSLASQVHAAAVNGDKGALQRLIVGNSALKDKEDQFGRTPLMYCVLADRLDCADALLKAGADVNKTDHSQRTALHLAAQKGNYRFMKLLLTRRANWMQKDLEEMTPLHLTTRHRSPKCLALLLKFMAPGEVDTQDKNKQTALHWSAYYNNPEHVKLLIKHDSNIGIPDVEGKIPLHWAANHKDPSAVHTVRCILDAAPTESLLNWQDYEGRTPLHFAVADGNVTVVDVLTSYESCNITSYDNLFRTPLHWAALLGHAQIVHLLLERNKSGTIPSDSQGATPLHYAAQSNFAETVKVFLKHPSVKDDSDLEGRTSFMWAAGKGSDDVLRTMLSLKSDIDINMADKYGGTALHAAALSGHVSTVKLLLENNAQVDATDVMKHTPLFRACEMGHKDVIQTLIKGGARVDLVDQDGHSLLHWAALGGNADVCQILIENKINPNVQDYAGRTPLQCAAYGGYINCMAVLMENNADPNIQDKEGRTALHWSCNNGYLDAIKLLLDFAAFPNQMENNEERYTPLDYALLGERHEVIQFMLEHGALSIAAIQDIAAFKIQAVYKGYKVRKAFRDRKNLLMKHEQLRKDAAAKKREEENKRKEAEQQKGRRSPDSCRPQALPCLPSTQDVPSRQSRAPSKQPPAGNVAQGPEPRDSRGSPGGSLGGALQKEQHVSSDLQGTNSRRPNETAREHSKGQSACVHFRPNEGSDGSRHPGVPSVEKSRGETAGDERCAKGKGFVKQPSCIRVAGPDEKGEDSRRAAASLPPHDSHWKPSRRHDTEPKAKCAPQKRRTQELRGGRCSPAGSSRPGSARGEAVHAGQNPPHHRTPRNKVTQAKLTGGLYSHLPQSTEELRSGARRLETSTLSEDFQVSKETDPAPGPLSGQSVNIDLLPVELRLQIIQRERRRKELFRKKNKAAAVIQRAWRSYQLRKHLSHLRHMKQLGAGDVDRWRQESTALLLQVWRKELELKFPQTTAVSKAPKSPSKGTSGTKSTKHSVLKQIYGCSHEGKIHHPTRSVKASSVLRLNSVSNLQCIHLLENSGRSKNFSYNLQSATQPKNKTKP", "UniProt Q9UM54, whole entry": "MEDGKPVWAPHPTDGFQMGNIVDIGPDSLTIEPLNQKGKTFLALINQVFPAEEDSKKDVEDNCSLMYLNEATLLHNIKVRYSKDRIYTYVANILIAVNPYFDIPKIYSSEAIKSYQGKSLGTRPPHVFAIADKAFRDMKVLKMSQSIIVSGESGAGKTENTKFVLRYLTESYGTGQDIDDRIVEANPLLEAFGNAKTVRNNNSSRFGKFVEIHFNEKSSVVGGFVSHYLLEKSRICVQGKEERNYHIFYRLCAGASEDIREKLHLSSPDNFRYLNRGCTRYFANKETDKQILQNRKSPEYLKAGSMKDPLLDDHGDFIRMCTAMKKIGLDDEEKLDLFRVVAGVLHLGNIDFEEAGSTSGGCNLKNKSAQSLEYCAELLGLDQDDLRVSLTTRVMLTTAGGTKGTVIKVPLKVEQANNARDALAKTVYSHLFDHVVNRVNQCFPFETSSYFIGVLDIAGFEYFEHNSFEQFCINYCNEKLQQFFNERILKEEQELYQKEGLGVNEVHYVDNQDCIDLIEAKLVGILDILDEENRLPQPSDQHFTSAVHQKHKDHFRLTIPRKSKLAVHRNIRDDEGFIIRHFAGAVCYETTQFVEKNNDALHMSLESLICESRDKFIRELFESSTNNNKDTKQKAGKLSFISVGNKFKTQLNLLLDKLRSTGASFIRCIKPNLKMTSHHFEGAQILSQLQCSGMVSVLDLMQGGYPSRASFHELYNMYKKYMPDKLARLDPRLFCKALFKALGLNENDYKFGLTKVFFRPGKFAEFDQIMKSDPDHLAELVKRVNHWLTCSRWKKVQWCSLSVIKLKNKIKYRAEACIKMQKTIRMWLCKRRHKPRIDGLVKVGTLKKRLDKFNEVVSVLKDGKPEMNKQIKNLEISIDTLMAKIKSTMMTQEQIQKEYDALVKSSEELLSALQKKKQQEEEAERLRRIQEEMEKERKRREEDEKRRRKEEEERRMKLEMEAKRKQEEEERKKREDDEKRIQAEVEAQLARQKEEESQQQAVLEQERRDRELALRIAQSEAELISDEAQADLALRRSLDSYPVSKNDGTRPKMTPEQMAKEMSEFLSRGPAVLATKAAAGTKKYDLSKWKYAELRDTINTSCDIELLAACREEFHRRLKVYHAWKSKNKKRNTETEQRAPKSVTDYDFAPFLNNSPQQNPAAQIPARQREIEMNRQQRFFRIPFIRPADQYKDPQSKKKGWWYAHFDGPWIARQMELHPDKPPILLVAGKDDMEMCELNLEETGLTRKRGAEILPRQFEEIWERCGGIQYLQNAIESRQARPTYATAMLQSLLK", "UniProt Q9UKA4": "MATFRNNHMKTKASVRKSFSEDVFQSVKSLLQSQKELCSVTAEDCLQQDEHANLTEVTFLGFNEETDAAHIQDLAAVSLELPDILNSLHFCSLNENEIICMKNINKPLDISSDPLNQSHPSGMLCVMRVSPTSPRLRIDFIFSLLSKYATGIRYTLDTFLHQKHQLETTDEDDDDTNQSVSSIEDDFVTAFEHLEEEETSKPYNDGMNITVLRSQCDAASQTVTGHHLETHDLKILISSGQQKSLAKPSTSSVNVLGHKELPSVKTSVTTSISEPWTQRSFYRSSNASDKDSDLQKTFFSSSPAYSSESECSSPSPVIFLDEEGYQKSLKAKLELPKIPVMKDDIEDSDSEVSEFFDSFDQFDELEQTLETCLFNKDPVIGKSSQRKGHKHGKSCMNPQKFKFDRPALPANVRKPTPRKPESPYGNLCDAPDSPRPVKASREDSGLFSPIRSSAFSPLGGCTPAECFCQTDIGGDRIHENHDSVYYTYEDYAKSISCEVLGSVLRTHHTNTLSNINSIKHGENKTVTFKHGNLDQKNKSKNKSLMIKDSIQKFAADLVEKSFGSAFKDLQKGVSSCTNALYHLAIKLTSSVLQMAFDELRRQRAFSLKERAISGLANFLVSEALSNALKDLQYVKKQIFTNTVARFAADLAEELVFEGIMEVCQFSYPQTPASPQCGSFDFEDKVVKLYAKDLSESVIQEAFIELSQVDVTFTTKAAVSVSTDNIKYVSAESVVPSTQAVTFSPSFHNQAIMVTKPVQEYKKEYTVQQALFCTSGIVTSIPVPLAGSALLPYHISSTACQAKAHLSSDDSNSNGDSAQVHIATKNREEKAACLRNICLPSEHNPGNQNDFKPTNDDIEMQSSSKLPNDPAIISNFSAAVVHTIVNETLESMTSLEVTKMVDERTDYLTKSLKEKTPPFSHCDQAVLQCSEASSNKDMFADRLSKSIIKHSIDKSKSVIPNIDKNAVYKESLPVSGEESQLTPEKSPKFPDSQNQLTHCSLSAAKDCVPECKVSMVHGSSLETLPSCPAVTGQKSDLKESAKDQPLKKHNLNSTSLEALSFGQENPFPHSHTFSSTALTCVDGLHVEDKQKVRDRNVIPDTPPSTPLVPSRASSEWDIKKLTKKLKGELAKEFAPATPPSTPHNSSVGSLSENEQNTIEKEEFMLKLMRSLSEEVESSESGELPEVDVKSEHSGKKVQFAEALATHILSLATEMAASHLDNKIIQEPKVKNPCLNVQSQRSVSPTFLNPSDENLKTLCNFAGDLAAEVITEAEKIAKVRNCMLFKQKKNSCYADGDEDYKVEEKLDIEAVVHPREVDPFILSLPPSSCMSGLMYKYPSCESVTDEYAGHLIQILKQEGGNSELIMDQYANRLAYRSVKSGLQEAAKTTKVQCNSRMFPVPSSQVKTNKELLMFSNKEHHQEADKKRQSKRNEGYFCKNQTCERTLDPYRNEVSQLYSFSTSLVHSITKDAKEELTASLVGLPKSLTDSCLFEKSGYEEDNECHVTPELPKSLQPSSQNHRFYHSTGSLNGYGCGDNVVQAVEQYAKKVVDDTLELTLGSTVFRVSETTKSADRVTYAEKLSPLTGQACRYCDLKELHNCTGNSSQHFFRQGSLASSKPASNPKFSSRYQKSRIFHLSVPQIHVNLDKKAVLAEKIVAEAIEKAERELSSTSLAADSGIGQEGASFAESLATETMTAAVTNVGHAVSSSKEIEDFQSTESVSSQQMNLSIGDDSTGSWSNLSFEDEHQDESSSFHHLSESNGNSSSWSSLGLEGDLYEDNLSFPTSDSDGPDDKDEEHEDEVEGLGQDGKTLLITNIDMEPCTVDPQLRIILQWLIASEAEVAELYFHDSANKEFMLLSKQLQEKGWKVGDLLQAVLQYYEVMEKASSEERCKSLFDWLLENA", "UniProt Q9UL45": "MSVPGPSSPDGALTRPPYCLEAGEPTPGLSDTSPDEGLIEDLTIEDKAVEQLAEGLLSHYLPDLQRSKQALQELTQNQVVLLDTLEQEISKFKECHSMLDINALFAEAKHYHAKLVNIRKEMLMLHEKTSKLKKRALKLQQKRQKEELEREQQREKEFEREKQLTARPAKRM", "UniProt Q9Y2Y1": "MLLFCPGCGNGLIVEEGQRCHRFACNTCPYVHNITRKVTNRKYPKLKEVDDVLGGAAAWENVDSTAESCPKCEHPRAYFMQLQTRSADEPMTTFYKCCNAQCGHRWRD", "UniProt Q9ULI0": "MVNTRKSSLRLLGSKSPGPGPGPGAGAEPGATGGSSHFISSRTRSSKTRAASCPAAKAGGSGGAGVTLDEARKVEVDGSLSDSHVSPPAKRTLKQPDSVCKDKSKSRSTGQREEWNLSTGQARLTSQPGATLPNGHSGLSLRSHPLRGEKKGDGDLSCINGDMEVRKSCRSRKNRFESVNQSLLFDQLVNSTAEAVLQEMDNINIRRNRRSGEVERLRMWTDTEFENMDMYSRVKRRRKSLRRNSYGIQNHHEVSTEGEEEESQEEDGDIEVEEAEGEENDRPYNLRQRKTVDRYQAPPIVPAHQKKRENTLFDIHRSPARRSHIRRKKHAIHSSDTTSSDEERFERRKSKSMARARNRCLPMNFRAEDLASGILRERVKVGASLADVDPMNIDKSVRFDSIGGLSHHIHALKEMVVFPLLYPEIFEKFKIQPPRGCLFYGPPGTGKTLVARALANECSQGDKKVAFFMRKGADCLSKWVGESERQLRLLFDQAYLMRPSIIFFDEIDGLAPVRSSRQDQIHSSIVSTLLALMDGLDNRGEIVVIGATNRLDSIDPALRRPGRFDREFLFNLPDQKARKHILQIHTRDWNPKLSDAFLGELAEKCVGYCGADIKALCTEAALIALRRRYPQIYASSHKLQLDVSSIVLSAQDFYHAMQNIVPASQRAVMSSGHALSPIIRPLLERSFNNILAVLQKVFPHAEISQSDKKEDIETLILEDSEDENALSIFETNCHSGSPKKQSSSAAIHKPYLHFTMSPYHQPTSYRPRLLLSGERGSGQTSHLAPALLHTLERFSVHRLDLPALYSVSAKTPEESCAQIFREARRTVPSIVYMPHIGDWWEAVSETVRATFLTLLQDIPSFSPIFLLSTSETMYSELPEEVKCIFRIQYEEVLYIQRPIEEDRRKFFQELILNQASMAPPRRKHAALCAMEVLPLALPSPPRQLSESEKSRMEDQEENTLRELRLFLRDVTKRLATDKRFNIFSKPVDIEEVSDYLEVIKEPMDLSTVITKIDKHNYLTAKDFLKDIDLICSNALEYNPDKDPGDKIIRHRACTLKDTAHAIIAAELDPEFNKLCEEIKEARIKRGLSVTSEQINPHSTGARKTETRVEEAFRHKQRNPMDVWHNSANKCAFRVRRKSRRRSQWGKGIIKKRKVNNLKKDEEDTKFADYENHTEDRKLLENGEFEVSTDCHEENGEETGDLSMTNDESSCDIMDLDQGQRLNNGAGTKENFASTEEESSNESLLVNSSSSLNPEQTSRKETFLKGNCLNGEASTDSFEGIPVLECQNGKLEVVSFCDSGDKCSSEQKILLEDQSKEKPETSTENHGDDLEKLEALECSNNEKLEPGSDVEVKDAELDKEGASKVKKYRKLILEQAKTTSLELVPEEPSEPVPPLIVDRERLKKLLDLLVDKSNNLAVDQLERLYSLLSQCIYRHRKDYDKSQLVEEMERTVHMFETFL"},
  "source": "the supplement of paper PMC12819154",
  "about": "“High-throughput peptide-centric local stability assay extends protein–ligand identification to membrane proteins, tissues and bacteria” (Nature Structural & Molecular Biology, 2025)",
  "note": "Some of the results follow. Most entries show no effect beyond the scatter of the controls.",
  "data": [
    {"compound": "CN[C@@H]1C[C@H]2O[C@@](C)([C@@H]1OC)n1c3ccccc3c3c4c(c5c6ccccc6n2c5c31)C(=O)NC4 [staurosporine]", "experiment": "log2 fold change of tryptic peptide abundance, ligand vs vehicle (limited proteolysis) (log2 ratio); higher = more trypsin-susceptible (destabilized)", "details": "ligand concentration: 20 uM; sample: K562 cleared lysate; digestion: 4 min, 22 C (HT-PELSA RT4min, Orbitrap Astral)", "values": [
      {"target": "SMC3 (peptide sequence: VEELDRK, peptide start residue: 448) (UniProt Q9UQE7)", "log2 fold change": 0.311},
      {"target": "DDX52 (peptide sequence: TGFRDQLASIFLACTSHK, peptide start residue: 329) (UniProt Q9Y2R4)", "log2 fold change": 0.667},
      {"target": "SETD1B (peptide sequence: FTDAYNR, peptide start residue: 317) (UniProt Q9UPS6)", "log2 fold change": -0.232},
      {"target": "UniProt Q9Y283 (peptide sequence: GSPGGSLGGALQK, peptide start residue: 660)", "log2 fold change": -0.00239},
      {"target": "MYO6 (peptide sequence: GWWYAHFDGPWIAR, peptide start residue: 1200) (UniProt Q9UM54)", "log2 fold change": -0.328},
      {"target": "AKAP11 (peptide sequence: SLQPSSQNHR, peptide start residue: 1510) (UniProt Q9UKA4)", "log2 fold change": 0.295},
      {"target": "BLOC1S6 (peptide sequence: QKEELEREQQR, peptide start residue: 144) (UniProt Q9UL45)", "log2 fold change": 0.399},
      {"target": "POLR3K (peptide sequence: CHRFACNTCPYVHNITR, peptide start residue: 20) (UniProt Q9Y2Y1)", "log2 fold change": 0.314},
      {"target": "ATAD2B (peptide sequence: GLSVTSEQINPHSTGAR, peptide start residue: 1086) (UniProt Q9ULI0)", "log2 fold change": 0.271}
    ]}
  ]
}
